From article PMC5356584
These are yes or no findings as the source states them, for the method shown. Binding seen in cells or lysates may run through a third protein. These calls come from enrichment with a bait or labelling near it, and not all partners need be listed.

Protein sequences, listed by entry. Tags and fused reporters are not part of them.
UniProt Q92481: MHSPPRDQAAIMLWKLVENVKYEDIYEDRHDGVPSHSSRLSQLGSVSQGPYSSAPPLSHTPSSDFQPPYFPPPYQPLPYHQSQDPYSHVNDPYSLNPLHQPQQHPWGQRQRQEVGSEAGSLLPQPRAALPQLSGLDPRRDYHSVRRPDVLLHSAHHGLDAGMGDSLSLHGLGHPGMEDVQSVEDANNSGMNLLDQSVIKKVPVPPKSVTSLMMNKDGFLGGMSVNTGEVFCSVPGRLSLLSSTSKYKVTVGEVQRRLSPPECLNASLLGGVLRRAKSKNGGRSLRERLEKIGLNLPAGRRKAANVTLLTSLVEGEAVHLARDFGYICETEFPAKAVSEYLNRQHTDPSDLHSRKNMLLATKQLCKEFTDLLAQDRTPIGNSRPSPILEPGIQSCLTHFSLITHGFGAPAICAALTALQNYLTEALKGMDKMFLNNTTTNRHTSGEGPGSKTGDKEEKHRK

T1: PGC1α (Peroxisome proliferator-activated receptor γ, coactivator 1α) (human (endogenous in 5-8F and MGC803)) (UniProt Q9UBK2)
T1 sequence: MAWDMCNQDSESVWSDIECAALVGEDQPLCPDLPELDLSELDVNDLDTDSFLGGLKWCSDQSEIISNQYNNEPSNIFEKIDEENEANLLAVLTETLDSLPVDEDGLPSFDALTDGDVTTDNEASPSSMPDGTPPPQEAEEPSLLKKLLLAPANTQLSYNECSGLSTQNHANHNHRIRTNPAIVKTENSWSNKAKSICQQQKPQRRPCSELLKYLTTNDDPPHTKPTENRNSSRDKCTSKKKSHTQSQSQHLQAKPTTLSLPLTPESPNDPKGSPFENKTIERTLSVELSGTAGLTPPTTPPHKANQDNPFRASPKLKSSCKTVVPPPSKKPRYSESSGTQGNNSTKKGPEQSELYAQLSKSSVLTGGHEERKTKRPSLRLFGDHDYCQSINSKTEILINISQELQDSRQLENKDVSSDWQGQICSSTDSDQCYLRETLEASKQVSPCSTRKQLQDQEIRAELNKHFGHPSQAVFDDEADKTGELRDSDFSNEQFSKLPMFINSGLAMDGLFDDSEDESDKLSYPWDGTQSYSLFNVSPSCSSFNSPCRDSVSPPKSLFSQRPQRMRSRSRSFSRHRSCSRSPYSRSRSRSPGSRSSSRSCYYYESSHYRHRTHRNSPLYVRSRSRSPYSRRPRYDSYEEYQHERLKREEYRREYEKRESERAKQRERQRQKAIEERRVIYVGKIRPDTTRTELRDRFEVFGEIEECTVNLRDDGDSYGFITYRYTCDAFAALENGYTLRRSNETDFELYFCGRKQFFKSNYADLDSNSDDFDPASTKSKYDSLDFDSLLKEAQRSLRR


Target: T1, PGC1α (Peroxisome proliferator-activated receptor γ, coactivator 1α) (human (endogenous in 5-8F and MGC803))
Test: affinity purification with mass spectrometry; Co-IP pulldown with anti-PGC1α antibody on Protein G agarose, followed by LC/MS/MS; cell line not stated

binding	Molecule
binds	AP2β (from UniProt Q92481 1-460)
binds	LSF (also known as TFCP2) (protein, UniProt Q12800 1-502) MAWALKLPLADEVIESGLVQDFDASLSGIGQELGAGAYSMSDVLALPIFKQEESSLPPDNENKILPFQYVLCAATSPAVKLHDETLTYLNQGQSYEIRMLDNRKLGELPEINGKLVKSIFRVVFHDRRLQYTEHQQLEGWRWNRPGDRILDIDIPMSVGIIDPRANPTQLNTVEFLWDPAKRTSVFIQVHCISTEFTMRKHGGEKGVPFRVQIDTFKENENGEYTEHLHSASCQIKVFKPKGADRKQKTDREKMEKRTPHEKEKYQPSYETTILTECSPWPEITYVNNSPSPGFNSSHSSFSLGEGNGSPNHQPEPPPPVTDNLLPTTTPQEAQQWLHRNRFSTFTRLFTNFSGADLLKLTRDDVIQICGPADGIRLFNALKGRMVRPRLTIYVCQESLQLREQQQQQQQQQQKHEDGDSNGTFFVYHAIYLEELTAVELTEKIAQLFSISPCQISQIYKQGPTGIHVLISDEMIQNFQEEACFILDTMKAETNDSYHIILK
